## Percent effect of library compounds

The chains behind the UniProt entries cited, without tags or fusion partners. Residues count along the entry.
UniProt I6X8D2, whole entry: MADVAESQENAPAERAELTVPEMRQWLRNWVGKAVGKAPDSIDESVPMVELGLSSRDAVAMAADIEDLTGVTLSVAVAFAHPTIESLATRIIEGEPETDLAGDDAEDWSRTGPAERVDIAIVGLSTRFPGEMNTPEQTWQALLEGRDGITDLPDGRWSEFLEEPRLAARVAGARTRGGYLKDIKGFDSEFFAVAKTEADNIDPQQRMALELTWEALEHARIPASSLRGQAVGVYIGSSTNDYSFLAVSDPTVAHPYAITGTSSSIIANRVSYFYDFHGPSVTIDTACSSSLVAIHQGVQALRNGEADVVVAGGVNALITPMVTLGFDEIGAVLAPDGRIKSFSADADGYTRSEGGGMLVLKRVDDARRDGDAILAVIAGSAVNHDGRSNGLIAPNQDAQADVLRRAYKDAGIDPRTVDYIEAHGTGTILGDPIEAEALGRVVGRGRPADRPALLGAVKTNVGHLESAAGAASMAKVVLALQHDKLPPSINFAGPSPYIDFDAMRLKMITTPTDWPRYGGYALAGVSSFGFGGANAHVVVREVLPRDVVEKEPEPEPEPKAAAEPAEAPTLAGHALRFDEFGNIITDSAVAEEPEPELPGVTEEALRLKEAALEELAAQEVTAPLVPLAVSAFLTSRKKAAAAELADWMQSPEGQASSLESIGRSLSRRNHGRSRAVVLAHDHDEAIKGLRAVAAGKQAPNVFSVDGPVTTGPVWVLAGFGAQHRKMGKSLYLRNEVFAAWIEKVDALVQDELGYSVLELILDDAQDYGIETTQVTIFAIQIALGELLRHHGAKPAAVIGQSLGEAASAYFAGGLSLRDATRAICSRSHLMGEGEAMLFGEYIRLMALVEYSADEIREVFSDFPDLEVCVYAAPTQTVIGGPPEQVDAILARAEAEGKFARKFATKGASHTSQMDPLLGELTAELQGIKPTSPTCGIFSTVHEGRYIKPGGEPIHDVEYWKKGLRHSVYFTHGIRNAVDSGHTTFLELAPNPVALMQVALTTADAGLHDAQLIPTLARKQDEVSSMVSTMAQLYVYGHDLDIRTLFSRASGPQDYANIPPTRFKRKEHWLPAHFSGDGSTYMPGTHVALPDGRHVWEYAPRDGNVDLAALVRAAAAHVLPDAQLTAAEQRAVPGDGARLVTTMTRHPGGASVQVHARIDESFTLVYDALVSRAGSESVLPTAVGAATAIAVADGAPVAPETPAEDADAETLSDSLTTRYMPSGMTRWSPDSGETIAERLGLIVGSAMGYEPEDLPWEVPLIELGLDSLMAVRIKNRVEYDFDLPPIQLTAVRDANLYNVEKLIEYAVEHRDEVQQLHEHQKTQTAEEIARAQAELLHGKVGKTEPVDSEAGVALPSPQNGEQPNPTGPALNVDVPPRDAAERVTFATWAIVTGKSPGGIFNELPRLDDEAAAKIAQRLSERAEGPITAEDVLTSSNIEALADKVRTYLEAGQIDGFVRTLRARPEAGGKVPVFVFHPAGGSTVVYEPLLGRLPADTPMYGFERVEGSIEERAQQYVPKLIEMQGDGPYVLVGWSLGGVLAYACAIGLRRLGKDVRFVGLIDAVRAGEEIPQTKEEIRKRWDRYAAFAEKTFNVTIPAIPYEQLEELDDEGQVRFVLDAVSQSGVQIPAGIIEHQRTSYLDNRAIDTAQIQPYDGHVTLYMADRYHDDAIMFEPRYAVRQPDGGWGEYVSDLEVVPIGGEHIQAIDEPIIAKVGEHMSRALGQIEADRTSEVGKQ
UniProt Q8IDJ8, 1-583: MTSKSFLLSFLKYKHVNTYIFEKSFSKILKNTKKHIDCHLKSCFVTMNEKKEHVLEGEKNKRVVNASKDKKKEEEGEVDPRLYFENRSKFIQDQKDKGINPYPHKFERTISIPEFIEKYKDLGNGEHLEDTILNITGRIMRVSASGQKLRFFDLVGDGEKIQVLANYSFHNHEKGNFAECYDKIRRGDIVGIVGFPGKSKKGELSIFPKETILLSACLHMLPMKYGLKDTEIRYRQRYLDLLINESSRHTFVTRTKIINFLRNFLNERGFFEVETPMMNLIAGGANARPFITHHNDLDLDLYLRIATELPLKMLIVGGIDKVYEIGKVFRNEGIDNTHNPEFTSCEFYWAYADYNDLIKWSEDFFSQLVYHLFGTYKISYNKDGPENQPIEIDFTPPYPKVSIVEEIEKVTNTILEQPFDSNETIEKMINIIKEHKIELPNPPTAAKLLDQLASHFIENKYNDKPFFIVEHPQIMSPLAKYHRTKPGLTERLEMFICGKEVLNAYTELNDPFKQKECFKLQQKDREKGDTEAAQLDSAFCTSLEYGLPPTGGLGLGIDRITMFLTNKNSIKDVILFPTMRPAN
UniProt A4I591, 1-473: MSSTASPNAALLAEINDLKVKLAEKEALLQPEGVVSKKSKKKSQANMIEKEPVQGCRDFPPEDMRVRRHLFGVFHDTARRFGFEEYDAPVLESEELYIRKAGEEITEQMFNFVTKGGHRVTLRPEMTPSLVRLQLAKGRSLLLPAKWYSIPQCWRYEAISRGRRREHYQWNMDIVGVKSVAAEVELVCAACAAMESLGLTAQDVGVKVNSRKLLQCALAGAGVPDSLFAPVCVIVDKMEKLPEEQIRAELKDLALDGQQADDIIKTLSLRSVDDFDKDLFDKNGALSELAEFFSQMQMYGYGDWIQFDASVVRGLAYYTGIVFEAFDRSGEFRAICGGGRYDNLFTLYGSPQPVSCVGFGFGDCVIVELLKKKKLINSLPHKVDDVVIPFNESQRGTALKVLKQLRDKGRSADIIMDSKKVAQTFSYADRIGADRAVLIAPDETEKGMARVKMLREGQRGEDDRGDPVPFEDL
UniProt Q4DA54, 1-478: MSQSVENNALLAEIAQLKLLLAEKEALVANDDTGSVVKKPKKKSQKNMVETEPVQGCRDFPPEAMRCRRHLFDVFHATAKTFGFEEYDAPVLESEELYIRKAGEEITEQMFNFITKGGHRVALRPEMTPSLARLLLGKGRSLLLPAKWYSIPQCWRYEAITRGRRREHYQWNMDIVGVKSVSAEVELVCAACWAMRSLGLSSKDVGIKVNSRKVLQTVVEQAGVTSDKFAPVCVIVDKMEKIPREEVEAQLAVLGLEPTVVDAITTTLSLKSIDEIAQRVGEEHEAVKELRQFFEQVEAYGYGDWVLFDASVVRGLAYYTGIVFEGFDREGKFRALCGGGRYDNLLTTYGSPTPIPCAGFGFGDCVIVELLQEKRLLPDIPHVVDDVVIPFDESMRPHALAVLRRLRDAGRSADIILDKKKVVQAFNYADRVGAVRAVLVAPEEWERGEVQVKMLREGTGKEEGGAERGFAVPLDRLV

The filed quantity is “Percent Effect” (%). The controls that fix the scale are not given in the record; negative values are as filed. This is an unselected part of the compounds tested.

Pks13 thioesterase: 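Polyketide synthase Pks13, Mycobacterium tuberculosis (UniProt I6X8D2). Enzyme assay of the thioesterase domain of polyketide synthase 13; the read-out is not stated. Concentration: 30 µM. Higher reads as stronger inhibition (inferred from which compounds were picked for retests). Size under these conditions: about 67,000 compounds, about 300 of them at 50% or above in at least one test.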
PfKRS1: 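Enzyme assay of the cytosolic lysyl-tRNA synthetase in 384-well plates, read by luminescence. Target: Lysine-tRNA ligase, Plasmodium falciparum 3D7 (UniProt Q8IDJ8). Concentration: 30 µM. Direction is inferred from only a few compounds that gave an IC50; most scored high, so higher reads as stronger inhibition. Size under these conditions: about 69,000 compounds, about 49 of them at 50% or above in at least one test.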
LiHisRS: 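Enzyme assay of histidyl-tRNA synthetase; the read-out is not stated. Target: Histidine-tRNA ligase, Leishmania infantum (UniProt A4I591). Compounds at 30 µM. Higher reads as stronger inhibition (inferred: compounds with an IC50 in retests scored well above the rest). The assay is labelled LdHisRS but filed under L. infantum. Size under these conditions: about 69,000 compounds, about 410 of them at 50% or above in at least one test.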
TcHisRS: 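Enzyme assay of histidyl-tRNA synthetase; the read-out is not stated. Target: Histidine-tRNA ligase, Trypanosoma cruzi CL Brener (UniProt Q4DA54). Tested at 30 µM. The record gives no direction; compounds that gave an IC50 in retests scored well above the rest, so higher reads as stronger inhibition. Of about 69,000 compounds tested this way, about 31 (0.045%) reached 50% or more in at least one test.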

SMILES: COCCCN(C)C1CCCN(Cc2noc(C)n2)C1 (stereo not drawn)
Pks13 thioesterase: -7.618%
PfKRS1: 6.228%
LiHisRS: 12.31%
TcHisRS: -1.149%

SMILES: c1ccc(CSc2nnc(C3CC3)s2)nc1
PfKRS1: 3.098%
LiHisRS: 14.04%
TcHisRS: 7.563%

SMILES: c1cc(C2CCCN2CC2CC2)n[nH]1 (stereo not drawn)
Pks13 thioesterase: -5.821%
PfKRS1: -0.2899%
LiHisRS: 9.929%
TcHisRS: 13.91%

SMILES: CCN(Cc1ccncc1)C1CCCN(Cc2ccc(F)cc2Cl)C1 (stereo not drawn)
Pks13 thioesterase: -3.731%
PfKRS1: -2.955%
LiHisRS: 11.11%
TcHisRS: 14.44%

SMILES: CCN(CC1CN(CCc2ccccn2)CCO1)c1cccnn1 (stereo not drawn)
Pks13 thioesterase: -10.58%
PfKRS1: -2.625%
LiHisRS: 4.854%
TcHisRS: 3.734%

SMILES: O=C(c1ccnnc1)N1CCN2C[C@H](Oc3cccc(F)c3)C[C@H]2C1
PfKRS1: 7.024%
LiHisRS: 15.09%
TcHisRS: 1.622%

SMILES: Cc1cc(C(=O)NC2CCN(C(=O)Nc3cccnc3)CC2)c(C)o1
Pks13 thioesterase: -8.504%
PfKRS1: 7.127%
LiHisRS: 14.04%
TcHisRS: 4.202%

SMILES: O=C(c1ccco1)N1CCCC2(CCN(CCN3CCCC3)C2=O)C1 (stereo not drawn)
Pks13 thioesterase: -30.06%
PfKRS1: 1.323%
LiHisRS: 12.33%
TcHisRS: 4.95%

SMILES: CCc1nc(NS(=O)(=O)c2cc(C)cc(F)c2)no1
Pks13 thioesterase: 1.051%
PfKRS1: -1.857%
LiHisRS: 0%
TcHisRS: 4.082%

SMILES: CC(=O)c1cccc(NC(=O)N(CCO)C2CCc3ccccc32)c1 (stereo not drawn)
Pks13 thioesterase: -57.42%
PfKRS1: -2.605%
LiHisRS: 13.33%
TcHisRS: 0%

SMILES: CNC(=O)c1cccc(CNC(C)c2ccc(F)cc2N(C)C)c1 (stereo not drawn)
PfKRS1: -1.158%
LiHisRS: 13.68%
TcHisRS: 1.622%

SMILES: CCOCCN(CCOCC)c1nc(C)nc2sccc12
Pks13 thioesterase: 12.24%
PfKRS1: 0.4673%
LiHisRS: 9.211%
TcHisRS: 3.261%

SMILES: CCc1cnc(CNC(=O)NC2CCN(C3CCCC3)CC2)s1
Pks13 thioesterase: 0.6201%
PfKRS1: -3.872%
LiHisRS: 9.639%
TcHisRS: 3.867%

SMILES: COc1ccc(CN2C[C@@H]3OCCN(CCN4CCCC4)[C@@H]3C2)cc1
Pks13 thioesterase: -6.679%
PfKRS1: -0.1994%
LiHisRS: 0.9174%
TcHisRS: 9.244%

SMILES: Nc1nc(N)c2c(n1)OC1(CCN(Cc3nccs3)C1)C2 (stereo not drawn)
Pks13 thioesterase: -0.3059%
PfKRS1: 0.02846%
LiHisRS: 13.04%
TcHisRS: 6.818%

SMILES: CCN(Cc1cccnc1)CC1CCCO1 (stereo not drawn)
Pks13 thioesterase: -6.757%
PfKRS1: -0.4057%
LiHisRS: -5.769%
TcHisRS: 2.479%

SMILES: Cc1nc(COC(=O)c2cccnc2C)no1
Pks13 thioesterase: -4.295%
PfKRS1: 4.038%
LiHisRS: 10.59%
TcHisRS: 5.025%

SMILES: CC(=O)N1CCOC(c2c(C(=O)NCCN(C)C)sc3ccccc23)C1 (stereo not drawn)
Pks13 thioesterase: 8.312%
PfKRS1: 0.9764%
LiHisRS: 11.35%
TcHisRS: 10.9%

Data taken from ChEMBL document CHEMBL3988442, “University of Dundee, Small-Polar-MMV Screening Library” (2021).